The target in assay [1] is T1, HA-tagged wild-type WT-RNF6 (aa 1-685) (human) (UniProt Q9Y252).
T1 sequence: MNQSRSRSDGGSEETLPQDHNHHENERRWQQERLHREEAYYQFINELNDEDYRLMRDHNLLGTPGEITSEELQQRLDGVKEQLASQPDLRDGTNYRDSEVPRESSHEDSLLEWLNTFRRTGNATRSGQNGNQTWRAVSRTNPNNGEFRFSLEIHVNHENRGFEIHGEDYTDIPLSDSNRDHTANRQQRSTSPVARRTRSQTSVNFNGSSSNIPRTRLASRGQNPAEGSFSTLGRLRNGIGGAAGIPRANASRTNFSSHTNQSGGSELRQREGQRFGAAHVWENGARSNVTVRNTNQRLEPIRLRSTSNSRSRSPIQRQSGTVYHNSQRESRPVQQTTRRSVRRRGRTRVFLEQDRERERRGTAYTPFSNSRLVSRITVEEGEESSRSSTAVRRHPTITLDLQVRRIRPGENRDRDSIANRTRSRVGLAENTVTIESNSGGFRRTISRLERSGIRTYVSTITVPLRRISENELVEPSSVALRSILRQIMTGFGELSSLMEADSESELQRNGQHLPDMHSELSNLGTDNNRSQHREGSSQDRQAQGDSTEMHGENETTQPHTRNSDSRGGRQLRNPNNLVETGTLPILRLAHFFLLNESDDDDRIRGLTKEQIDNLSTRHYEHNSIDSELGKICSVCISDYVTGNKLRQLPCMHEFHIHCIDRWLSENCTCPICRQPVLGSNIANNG
Put plainly: co-IP; WT RNF6 or Myc-tagged SKP2 cotransfected with WT p27 or p27T187A in HEK293 cells; MG132 (10 µM) for 6 h; lysates immunoprecipitated with anti-RNF6 antibody (so in the source); immunoblotted for HA/Myc and p27. (In general: A western blot detects proteins with antibodies after separation by electrophoresis.)

Protein sequences, listed by entry. Tags and fused reporters are not part of them. Lines headed by an entry give the natural chain unless they say otherwise; changes in a name come on top.
UniProt P46527: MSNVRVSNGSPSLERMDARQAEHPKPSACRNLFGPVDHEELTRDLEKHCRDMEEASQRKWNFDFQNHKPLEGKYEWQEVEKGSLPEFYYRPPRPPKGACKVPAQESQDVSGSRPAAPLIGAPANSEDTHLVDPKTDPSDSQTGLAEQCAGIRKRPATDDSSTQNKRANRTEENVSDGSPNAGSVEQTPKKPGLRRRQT

Assay [2] deals with T2, HA-tagged RNF6 ΔRING mutant (aa 1–629) (human) (UniProt Q9Y252).
T2 sequence: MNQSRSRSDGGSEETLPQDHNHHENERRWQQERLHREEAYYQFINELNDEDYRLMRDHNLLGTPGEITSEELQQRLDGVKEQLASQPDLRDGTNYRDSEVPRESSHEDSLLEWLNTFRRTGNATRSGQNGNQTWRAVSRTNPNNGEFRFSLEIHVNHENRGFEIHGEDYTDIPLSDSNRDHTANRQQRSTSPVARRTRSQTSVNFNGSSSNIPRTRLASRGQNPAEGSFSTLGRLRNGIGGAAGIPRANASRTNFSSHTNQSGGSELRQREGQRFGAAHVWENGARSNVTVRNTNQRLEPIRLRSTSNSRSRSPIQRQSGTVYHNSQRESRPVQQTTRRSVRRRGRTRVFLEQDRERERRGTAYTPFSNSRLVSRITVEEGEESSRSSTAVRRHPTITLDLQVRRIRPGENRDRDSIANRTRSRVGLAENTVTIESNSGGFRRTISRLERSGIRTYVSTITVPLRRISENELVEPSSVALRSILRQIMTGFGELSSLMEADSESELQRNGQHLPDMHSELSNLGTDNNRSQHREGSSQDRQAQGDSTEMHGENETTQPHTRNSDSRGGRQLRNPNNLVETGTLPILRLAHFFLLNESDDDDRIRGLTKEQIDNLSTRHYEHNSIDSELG
Put plainly: co-IP; HA-tagged WT RNF6 and mutants cotransfected with p27 in HEK293 cells; MG132 (10 µM) for 6 h; blotted for HA and p27; the precipitating antibody is not told.

Assay [3] has as its target T1, HA-tagged wild-type WT-RNF6 (aa 1-685) (human). The assay is described as above.
The target of assay [4] is T3, RNF6 (Ring Finger Protein 6) (human (endogenous in LNCaP and CWR-R1)) (UniProt Q9Y252).
T3 sequence: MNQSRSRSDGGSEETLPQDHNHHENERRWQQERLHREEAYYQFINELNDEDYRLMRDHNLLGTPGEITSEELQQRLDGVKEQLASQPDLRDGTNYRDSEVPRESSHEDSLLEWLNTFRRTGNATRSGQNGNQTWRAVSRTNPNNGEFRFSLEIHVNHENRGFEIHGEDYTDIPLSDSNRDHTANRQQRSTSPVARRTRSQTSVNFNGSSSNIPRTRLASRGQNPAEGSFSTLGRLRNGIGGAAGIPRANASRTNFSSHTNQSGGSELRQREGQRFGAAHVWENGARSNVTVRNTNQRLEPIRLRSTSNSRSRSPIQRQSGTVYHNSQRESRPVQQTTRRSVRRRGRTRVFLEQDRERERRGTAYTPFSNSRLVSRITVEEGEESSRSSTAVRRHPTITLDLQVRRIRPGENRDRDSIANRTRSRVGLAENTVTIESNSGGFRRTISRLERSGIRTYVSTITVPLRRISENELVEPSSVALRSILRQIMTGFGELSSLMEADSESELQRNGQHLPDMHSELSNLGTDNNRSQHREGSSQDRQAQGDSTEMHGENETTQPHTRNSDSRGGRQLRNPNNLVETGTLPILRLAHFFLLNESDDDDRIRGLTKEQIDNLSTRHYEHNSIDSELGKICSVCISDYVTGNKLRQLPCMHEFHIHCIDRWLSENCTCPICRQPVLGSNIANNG
Nature of the assay: co-IP; endogenous proteins; LNCaP and CWR-R1 cells treated with MG132 (10 µM) for 6 h, lysed in IP buffer; immunoprecipitated with anti-RNF6 antibody, immunoblotted for p27; preimmune IgG as control; also after control or RNF6 shRNA.

For a further assay, the target named is GST-p27 (UniProt P46527). Nature of the assay: pull-down; LNCaP cells transfected with GST or GST-p27 alone or with RNF6; after 48 h lysates prepared, GST captured with GSH beads, immunoblotted for GST and RNF6.

These are yes or no findings as the source states them, for the method shown. In cells and extracts the contact can be indirect. Some entries that bind do so weakly or less than the wild type. For part of these data: Where a sequence is shown, tags or fusion partners need not be part of it.

Regarding “p27T187A phosphomutant (from UniProt P46527 1-198)”, in assay [1], the binding result is given as “binds”.
WT p27 (from UniProt P46527 1-198): the binding result in assay [1], in assay [2] and in assay [3] was “binds” each time.
For the molecule p27 (Kip1) (from UniProt P46527 1-198), the binding entry in assay [4] is recorded as “binds”.

B1: RNF6 (protein, UniProt Q9Y252 1-685)
chain: MNQSRSRSDGGSEETLPQDHNHHENERRWQQERLHREEAYYQFINELNDEDYRLMRDHNLLGTPGEITSEELQQRLDGVKEQLASQPDLRDGTNYRDSEVPRESSHEDSLLEWLNTFRRTGNATRSGQNGNQTWRAVSRTNPNNGEFRFSLEIHVNHENRGFEIHGEDYTDIPLSDSNRDHTANRQQRSTSPVARRTRSQTSVNFNGSSSNIPRTRLASRGQNPAEGSFSTLGRLRNGIGGAAGIPRANASRTNFSSHTNQSGGSELRQREGQRFGAAHVWENGARSNVTVRNTNQRLEPIRLRSTSNSRSRSPIQRQSGTVYHNSQRESRPVQQTTRRSVRRRGRTRVFLEQDRERERRGTAYTPFSNSRLVSRITVEEGEESSRSSTAVRRHPTITLDLQVRRIRPGENRDRDSIANRTRSRVGLAENTVTIESNSGGFRRTISRLERSGIRTYVSTITVPLRRISENELVEPSSVALRSILRQIMTGFGELSSLMEADSESELQRNGQHLPDMHSELSNLGTDNNRSQHREGSSQDRQAQGDSTEMHGENETTQPHTRNSDSRGGRQLRNPNNLVETGTLPILRLAHFFLLNESDDDDRIRGLTKEQIDNLSTRHYEHNSIDSELGKICSVCISDYVTGNKLRQLPCMHEFHIHCIDRWLSENCTCPICRQPVLGSNIANNG
As to B1, the binding result in the assay with GST-p27 is on record as “binds”.

Values taken from publication PMC9029106.
